Measured values taken from PubChem BioAssay AID504847 (National Center for Advancing Translational Sciences (NCATS), 2011).
Among all 400,000 compounds or so, about 3,700 (0.93%) were called active. Inconclusive results, whose numbers are uncertain, are shown with a selection of clear calls. The call rests on the fitted dose curve; in most records, active means well fitted inhibition curve with a large enough effect; inconclusive means small, poorly fitted or top-dose-only effect, or another doubt; inactive means no such curve, though single readings can be large or run the other way. A potency beside an inconclusive call is a rough fit, not a confirmed value.

Chains of the proteins cited; added tags and fusions are not shown. Lines headed by an entry give the natural chain unless they say otherwise; changes in a name come on top.
UniProt P11473: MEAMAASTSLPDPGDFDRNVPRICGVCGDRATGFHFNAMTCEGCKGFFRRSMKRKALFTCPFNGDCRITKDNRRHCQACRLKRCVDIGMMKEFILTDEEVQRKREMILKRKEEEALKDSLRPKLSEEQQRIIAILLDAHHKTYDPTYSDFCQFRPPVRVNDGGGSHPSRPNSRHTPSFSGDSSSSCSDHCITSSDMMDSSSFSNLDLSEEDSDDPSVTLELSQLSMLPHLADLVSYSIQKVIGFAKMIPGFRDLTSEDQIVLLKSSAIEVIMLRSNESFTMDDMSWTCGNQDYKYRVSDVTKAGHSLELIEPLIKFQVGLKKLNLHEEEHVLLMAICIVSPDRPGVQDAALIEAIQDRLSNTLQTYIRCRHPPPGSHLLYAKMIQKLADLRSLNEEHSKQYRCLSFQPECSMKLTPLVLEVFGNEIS

Target: Vitamin D3 receptor (Homo sapiens) (UniProt P11473)
Experiment: Inhibitors of the vitamin D receptor (VDR): qHTS
Settings: VDR-SRC2-3 peptide fluorescence polarization, 2 h; max response, negative = inhibition: stronger effect = lower value
In short: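 Fluorescence polarization assay measuring small-molecule disruption of VDR binding to the coregulator peptide SRC2-3. Compounds were pin-transferred (23 nl) into the reagent mix and incubated 2 h at room temperature before reading.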
On the % scale 0 is the no-effect control and ±100 the full control effect; potency means the concentration at half of the fitted maximal effect.

Max response, negative = inhibition, inactive:
CC(C(=O)Nc1ccccc1C(F)(F)F)N1CCN(C)CC1 (centres undefined) -12.6%
COc1ccc(N2C(N)=C(C#N)C(c3cccnc3)C3=C2CC(C)(C)CC3=O)cc1 (centres undefined) -1.58%
CN(C)C(=S)Nc1ccc2c(c1)OCO2 -7.54%
CCOC(=O)c1cccc(NC(=O)C2CCN(c3nnc(C)c4c(C)n(-c5ccccc5)nc34)CC2)c1 6.88%
Cc1ccc(C(=O)Nc2ccccc2N2CCCCC2)o1 -19.8%
COC(=O)C(NS(N)(=O)=O)C(C)C (centres undefined) -8.18%
COC(=O)c1cc(-c2cccc([N+](=O)[O-])c2)c2c(=O)[nH]c(=O)n(C)c2n1 -8.19%

Potency, inconclusive:
CCN(CC)c1nc(-c2ccccc2)ncc1S(=O)(=O)c1ccc(C)cc1 89.1 µM [inhibitor, single point]
C#CCCCCCCCCCCCC(O)CC(O)COC(C)=O (centres undefined) 56.2 µM [inhibitor, partial curve, poor fit]
CCCC1(c2ccccc2)NC(=O)N(CC(=O)N(C)Cc2c(F)cccc2Cl)C1=O (centres undefined) 70.8 µM [inhibitor, partial curve, poor fit]
Cc1cccc(N2CCN(C(=O)NCc3ccc(F)cc3)CC2)c1C 79.4 µM [inhibitor, single point]
CCOc1ccc2nc(NC(=O)CSC3=NCCS3)sc2c1 39.8 µM [inhibitor, partial curve, poor fit]
COc1ccc(C2Nc3ccccc3NC3=C2C(=O)CC(C)(C)C3)cc1O (centres undefined) 25.1 µM [inhibitor, full curve]
Cc1ccc(C(NC(=O)N2CCCCC2)=C(Cl)Cl)cc1F 89.1 µM [inhibitor, single point]
CC(=O)N1CCN2C(=O)C1CCCC(=O)c1cc(C(C)C)ccc12 (centres undefined) 12.6 µM [inhibitor, partial curve, poor fit]
CCOc1ccc(NC(=O)NNC(=O)c2cc3ccccc3cc2O)cc1 31.6 µM [inhibitor, single point]
O=C(C=Cc1ccccc1)c1cc(Br)ccc1O 50.1 µM [inhibitor, partial curve, poor fit]

A draw from above in order of formula weight, largest number first.
Potency, inconclusive:
CCOc1ccc(NC(=O)NNC(=O)c2cc3ccccc3cc2O)cc1 31.6 µM [inhibitor, single point]
CCOc1ccc2nc(NC(=O)CSC3=NCCS3)sc2c1 39.8 µM [inhibitor, partial curve, poor fit]
CC(=O)N1CCN2C(=O)C1CCCC(=O)c1cc(C(C)C)ccc12 (centres undefined) 12.6 µM [inhibitor, partial curve, poor fit]

Following part.

Potency, active:
CN[C@@H]1[C@H](O[C@@H]2O[C@H](C)[C@@](O)(CO)[C@H]2O[C@H]2[C@H](O)[C@H](O)[C@H](N=C(N)N)[C@@H](O)[C@@H]2N=C(N)N)O[C@@H](CO)[C@H](O)[C@H]1O 50.1 µM
CN(Cc1ccco1)c1nc(-c2ccccc2C(F)(F)F)nc2ccccc12 35.5 µM
